Measurements taken from the supplement of paper PMC12067093, “Discovery and optimisation of a covalent ligand for TRIM25 and its application to targeted protein ubiquitination” (Chemical Science, 2025).
Some of the results follow.

By UniProt entry, the sequences of proteins in these tests, tags left out. Where a name states a change or a piece, a line headed by the entry shows the natural chain unless it says otherwise.
UniProt Q9HCE5: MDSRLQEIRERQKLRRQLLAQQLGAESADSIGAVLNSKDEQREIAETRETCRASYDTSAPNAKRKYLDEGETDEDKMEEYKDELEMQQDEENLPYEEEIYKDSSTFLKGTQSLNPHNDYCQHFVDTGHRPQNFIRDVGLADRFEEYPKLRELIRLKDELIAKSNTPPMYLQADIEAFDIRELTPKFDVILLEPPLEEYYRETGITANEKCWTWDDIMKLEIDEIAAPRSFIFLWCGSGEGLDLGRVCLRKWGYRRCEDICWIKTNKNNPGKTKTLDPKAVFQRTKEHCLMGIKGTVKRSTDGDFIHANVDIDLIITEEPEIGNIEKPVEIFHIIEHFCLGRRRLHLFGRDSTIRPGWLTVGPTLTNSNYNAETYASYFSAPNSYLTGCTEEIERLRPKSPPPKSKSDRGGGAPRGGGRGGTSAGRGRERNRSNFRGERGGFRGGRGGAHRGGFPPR
UniProt Q86W50: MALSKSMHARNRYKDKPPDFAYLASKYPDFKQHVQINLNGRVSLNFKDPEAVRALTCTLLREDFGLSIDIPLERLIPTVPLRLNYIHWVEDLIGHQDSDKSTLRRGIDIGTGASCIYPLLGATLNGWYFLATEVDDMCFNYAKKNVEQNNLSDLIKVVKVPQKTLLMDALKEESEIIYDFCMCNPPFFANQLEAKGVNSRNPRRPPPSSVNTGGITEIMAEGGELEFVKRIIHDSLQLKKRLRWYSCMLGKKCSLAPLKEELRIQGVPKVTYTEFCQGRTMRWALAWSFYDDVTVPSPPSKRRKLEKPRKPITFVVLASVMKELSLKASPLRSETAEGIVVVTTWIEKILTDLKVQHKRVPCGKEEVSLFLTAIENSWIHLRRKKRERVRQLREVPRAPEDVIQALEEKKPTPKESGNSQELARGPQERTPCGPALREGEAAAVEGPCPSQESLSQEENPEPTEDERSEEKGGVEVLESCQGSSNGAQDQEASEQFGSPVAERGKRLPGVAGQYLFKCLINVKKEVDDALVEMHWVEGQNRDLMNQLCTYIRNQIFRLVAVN
UniProt Q9NRN9: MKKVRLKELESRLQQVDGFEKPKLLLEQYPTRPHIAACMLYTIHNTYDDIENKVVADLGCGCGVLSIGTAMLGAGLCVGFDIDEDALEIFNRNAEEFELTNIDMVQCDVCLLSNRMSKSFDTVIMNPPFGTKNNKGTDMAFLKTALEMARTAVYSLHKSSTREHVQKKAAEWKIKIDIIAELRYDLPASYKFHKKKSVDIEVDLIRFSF
UniProt P50579: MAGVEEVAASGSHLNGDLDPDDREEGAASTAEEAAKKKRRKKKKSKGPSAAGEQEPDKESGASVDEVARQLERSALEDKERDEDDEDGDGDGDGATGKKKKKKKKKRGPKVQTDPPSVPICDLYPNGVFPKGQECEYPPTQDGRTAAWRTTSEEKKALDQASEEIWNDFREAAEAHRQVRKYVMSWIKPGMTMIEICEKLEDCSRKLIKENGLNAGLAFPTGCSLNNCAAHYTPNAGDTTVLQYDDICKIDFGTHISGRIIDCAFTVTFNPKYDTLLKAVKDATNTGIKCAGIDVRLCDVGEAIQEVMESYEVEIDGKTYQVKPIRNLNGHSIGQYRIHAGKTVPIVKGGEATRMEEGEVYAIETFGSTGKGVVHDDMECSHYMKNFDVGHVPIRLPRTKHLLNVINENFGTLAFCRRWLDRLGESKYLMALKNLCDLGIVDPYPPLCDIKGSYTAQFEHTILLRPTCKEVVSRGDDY
UniProt P40925: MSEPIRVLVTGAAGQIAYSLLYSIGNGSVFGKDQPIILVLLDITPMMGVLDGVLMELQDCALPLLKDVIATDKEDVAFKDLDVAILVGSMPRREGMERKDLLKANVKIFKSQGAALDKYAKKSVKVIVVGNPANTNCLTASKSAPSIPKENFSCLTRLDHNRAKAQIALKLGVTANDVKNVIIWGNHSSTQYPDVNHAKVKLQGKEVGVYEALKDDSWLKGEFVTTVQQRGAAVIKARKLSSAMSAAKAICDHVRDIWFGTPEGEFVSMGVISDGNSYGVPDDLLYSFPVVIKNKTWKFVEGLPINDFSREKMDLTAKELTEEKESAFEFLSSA
UniProt Q7L2J0: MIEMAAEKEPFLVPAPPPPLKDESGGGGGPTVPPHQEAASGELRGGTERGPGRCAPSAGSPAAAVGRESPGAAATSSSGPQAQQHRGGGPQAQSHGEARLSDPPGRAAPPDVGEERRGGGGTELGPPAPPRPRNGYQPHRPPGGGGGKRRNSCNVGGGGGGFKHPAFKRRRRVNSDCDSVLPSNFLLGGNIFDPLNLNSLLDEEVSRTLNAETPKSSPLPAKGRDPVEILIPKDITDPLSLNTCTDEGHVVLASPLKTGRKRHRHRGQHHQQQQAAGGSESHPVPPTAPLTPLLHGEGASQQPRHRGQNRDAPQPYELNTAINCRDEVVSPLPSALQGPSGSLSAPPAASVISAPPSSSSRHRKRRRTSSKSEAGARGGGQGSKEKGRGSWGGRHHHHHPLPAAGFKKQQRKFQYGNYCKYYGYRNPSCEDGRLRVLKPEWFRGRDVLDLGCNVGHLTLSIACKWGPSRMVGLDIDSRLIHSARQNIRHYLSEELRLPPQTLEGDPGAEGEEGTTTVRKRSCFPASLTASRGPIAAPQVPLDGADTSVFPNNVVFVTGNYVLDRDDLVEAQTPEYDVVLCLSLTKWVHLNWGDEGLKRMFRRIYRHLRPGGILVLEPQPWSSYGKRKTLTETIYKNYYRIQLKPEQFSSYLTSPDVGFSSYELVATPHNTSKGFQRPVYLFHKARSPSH
UniProt Q8N6R0: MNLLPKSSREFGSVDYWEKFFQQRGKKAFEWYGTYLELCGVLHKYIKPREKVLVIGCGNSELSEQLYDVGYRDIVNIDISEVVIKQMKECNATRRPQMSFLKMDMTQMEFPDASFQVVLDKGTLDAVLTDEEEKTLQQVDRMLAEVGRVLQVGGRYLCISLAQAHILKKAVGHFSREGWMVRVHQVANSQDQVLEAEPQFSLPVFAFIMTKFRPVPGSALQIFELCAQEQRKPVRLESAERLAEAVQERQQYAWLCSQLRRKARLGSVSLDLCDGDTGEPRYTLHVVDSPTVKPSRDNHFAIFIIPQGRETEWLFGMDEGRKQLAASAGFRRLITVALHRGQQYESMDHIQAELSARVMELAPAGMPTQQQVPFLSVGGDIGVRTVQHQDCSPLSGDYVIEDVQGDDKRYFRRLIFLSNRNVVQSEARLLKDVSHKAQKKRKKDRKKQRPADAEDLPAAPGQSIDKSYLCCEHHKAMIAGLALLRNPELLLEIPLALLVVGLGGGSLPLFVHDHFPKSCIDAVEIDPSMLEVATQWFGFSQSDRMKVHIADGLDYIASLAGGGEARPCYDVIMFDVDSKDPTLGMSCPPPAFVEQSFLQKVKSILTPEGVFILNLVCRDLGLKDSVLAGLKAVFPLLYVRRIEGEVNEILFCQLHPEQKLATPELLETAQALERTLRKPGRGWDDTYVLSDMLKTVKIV
UniProt Q14566: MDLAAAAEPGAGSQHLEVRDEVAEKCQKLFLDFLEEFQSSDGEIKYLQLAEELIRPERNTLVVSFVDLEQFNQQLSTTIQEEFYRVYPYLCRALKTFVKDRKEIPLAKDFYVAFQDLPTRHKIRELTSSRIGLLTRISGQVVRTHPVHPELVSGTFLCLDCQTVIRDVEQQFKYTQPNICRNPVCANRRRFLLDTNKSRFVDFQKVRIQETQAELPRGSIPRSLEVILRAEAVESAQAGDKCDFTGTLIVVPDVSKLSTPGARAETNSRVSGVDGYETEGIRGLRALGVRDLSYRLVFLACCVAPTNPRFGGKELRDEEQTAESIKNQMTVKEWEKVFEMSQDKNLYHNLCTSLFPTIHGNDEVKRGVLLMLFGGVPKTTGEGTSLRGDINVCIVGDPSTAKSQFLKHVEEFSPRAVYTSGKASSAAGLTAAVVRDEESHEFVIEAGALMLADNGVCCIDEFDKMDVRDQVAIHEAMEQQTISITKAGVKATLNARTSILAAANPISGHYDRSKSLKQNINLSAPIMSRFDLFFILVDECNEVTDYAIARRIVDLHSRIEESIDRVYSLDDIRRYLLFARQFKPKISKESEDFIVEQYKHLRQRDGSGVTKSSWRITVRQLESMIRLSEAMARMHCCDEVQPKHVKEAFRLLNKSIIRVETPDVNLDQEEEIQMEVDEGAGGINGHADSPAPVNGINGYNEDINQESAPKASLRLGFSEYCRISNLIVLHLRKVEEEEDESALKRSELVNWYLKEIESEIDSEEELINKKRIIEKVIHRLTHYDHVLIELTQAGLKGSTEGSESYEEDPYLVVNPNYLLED
UniProt Q9HCC0: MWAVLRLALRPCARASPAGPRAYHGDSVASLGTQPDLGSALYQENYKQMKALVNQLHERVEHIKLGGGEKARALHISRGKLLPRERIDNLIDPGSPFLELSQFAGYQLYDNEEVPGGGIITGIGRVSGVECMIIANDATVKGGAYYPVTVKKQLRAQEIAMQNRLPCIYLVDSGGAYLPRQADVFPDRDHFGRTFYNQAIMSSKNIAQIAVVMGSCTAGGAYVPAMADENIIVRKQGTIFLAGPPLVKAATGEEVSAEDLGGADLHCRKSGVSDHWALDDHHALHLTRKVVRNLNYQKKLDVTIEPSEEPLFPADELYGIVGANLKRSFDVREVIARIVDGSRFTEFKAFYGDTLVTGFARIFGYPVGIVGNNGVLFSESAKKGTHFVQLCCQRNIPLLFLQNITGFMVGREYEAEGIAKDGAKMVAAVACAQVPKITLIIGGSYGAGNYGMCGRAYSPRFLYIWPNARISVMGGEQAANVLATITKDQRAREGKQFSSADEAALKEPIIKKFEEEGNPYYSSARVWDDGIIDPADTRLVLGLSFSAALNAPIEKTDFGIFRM
UniProt Q6P1Q9: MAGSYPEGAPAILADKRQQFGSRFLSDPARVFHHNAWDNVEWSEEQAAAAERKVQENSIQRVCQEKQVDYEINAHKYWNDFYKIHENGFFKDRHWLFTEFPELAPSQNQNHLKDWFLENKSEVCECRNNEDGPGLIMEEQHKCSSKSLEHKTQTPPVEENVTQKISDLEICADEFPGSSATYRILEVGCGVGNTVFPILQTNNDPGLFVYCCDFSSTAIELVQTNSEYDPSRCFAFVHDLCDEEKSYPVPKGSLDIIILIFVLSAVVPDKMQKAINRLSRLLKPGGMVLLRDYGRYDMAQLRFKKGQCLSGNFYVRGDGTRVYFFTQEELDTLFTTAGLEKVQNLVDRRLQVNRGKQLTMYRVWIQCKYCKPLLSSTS
UniProt Q6UX53: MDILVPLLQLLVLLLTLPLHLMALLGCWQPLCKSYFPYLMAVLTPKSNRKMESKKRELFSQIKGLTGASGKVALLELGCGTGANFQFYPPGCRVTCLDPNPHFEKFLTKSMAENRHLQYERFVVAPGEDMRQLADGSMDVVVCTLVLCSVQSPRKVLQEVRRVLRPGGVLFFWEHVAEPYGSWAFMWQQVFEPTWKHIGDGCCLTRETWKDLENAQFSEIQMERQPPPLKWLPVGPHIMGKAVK
UniProt O15553: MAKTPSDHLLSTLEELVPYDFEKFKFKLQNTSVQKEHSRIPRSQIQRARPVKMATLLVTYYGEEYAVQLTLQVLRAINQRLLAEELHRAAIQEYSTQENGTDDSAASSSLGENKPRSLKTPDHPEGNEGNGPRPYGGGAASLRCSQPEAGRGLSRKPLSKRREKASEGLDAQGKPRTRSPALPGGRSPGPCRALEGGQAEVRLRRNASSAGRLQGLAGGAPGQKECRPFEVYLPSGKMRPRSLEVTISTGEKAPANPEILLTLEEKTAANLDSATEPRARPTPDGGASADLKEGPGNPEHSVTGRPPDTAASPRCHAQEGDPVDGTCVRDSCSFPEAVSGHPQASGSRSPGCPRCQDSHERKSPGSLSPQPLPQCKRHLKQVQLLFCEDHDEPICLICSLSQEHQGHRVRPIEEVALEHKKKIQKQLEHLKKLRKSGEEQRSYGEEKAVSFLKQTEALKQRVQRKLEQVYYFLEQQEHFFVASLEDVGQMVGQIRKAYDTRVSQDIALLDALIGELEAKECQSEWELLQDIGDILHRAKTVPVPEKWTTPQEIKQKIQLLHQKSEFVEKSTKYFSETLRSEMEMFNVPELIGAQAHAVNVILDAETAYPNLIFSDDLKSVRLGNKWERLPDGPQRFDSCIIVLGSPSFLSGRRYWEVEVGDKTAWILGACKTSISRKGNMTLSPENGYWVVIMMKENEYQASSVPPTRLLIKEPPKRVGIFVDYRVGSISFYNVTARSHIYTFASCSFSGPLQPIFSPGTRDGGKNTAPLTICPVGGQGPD

Compound: Cc1cc(ccc1-c1ccccc1)C(=O)N1CCCN(CC1)C(=O)CCl [compound 10]
Test: probe-labelled cysteine peptide fold change vs DMSO (competition) (log2 fold change); higher = less target engagement (more negative = stronger competition)
Settings: THP-1, incubation time: 4 h
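Note: competitive profiling in live THP-1 cells: cysteine peptides tagged with an iodoacetamide desthiobiotin (IA-DTB) probe, intensity after compound treatment relative to DMSO-treated cells.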

Target	probe-labelled cysteine peptide fold change (10 µM)	probe-labelled cysteine peptide fold change (50 µM)
METTL14_Q9HCE5_288_EHCLMGIK (UniProt Q9HCE5)	0.0181	0.0146
METTL16_Q86W50_276_VTYTEFCQGR (UniProt Q86W50)	-0.00384	-0.422
METTL5_Q9NRN9_107+110_NAEEFELTNIDMVQCDVCLLSNR (UniProt Q9NRN9)	0.0535	-0.63
METAP2_P50579_263_IIDCAFTVTFNPK (UniProt P50579)	0.171	0.0277
MCM3AP_O60318_1240_ETLQELQCFCK (UniProt O60318)	0.166	-0.18
MDH1_P40925_154_ENFSCLTR (UniProt P40925)	-0.141	-0.0408
MEPCE_Q7L2J0_419_FQYGNYCK (UniProt Q7L2J0)	-0.364	0.281
METTL13_Q8N6R0_652_RIEGEVNEILFCQLHPEQK (UniProt Q8N6R0)	0.157	0.197
MCM6_Q14566_302_LVFLACCVAPTNPR (UniProt Q14566)	-0.216	-0.355
MEPCE_Q7L2J0_419_KFQYGNYCK (UniProt Q7L2J0)	-0.172	-0.149
MCCC2_Q9HCC0_391_KGTHFVQLCCQR (UniProt Q9HCC0)	-0.144	-0.214
METTL2B_Q6P1Q9_241_CFAFVHDLCDEEK (UniProt Q6P1Q9)	-0.063	0.039
METTL7B_Q6UX53_202+203_HIGDGCCLTR (UniProt Q6UX53)	-0.127	-0.399
MEFV_O15553_332_DSCSFPEAVSGHPQASGSR (UniProt O15553)	-0.273	-0.12
MGA_Q8IWI9_1071_RQPAHCR (UniProt Q8IWI9)	-0.00175	-0.352

Whole records from above:
MEPCE_Q7L2J0_419_KFQYGNYCK (UniProt Q7L2J0) is listed as probe-labelled cysteine peptide fold change (10 µM) = -0.172; probe-labelled cysteine peptide fold change (50 µM) = -0.149
MCM6_Q14566_302_LVFLACCVAPTNPR (UniProt Q14566) is listed as probe-labelled cysteine peptide fold change (10 µM) = -0.216; probe-labelled cysteine peptide fold change (50 µM) = -0.355
